Primary screen of a compound library

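Phenotypic screen: M. tuberculosis growth, glucose 7H9 medium, 3 days; the read-out is not stated. Concentration: 50 µM. The record gives no direction; compounds that gave an IC50 in retests scored well above the rest, so higher reads as more growth inhibition. About 69,000 compounds were tested under these conditions; 1.1% (about 760) showed 50% or more at least once.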

Each number is a percent effect as filed. How 0% and 100% were set is not recorded. Most values in the screen are low, and negative values occur. The compounds are a random part of those screened. Two or more numbers in one place are separate tests of the same structure; such repeats can differ widely.

compound	effect
Cn1cc(CN2CCCC3(CCN(c4cccnc4)C3=O)C2)cn1 (stereo unspecified)	-44.42%
CN(C)CCNC(=O)Cn1cnc2cc(NC(=O)C3CC3)ccc21	19.44%
COCCN(C)C[C@@H]1CN(c2nc(C)cc(C)n2)C[C@@H]1CO	16.54%
COc1ccc(CCN2CCOC(Cn3nc(C)nc3C)C2)cc1 (stereo unspecified)	-13.91%
[H][C@]12C[C@H](NC(=O)c3ccn(C)n3)[C@@]1([H])CN(S(=O)(=O)c1ccc(C)cc1)C2	13.01%
O=C(CCc1cccc(F)c1F)N1CCN(Cc2ccco2)CC1	51.96%
COc1ccc2cc(CN(C)C(C)c3nc(C(C)(C)C)no3)ccc2c1 (stereo unspecified)	0.8076%
CC(=O)NCC1CCN(C(=O)c2c[nH]c3cc(Cl)ccc23)CC1	2.802%
COC(C)(C)C(=O)NCC1CCN(Cc2cc3ccccc3[nH]2)C1 (stereo unspecified)	6.277%
O=C(Cc1cccs1)N1CCC2(CCCN(CC3CCOCC3)C2)C1 (stereo unspecified)	-3.439% and 0.1954%
Cc1ccc2nc(CN(C)Cc3ccc(C)o3)cc(=O)n2c1	-17.94%
CC(C)n1nc(CN2CCOCC2)c2c1CN(Cc1ccsc1)C2.O=C(O)C(F)(F)F.O=C(O)C(F)(F)F	-36.89%
Cc1c(Br)cnn1C(C)C(=O)Nc1nncs1 (stereo unspecified)	-31.36% and -3.036%
CN(C)c1ccc(C(=O)N(CCO)CC2CC2)c(F)c1	-7.914%
COc1ccccc1CN(Cc1nc(C)no1)C1CC1	14.09%
Cc1ccc(NC(=O)NCC2CCS(=O)(=O)C2)cc1Cl (stereo unspecified)	14.05%
CC(C)N1CCC[C@H]1C(=O)NCC1CCN(c2cnn(C)c(=O)c2)CC1	-1.613%
CCc1cccc(N2CCC(NC(=O)C3CCC3)CC2)c1	13.08%
CCS(=O)(=O)N1CCC(OCCCc2ccccc2)C1 (stereo unspecified)	27.03% and 13.59%
CCN1CCC2(CCN(Cc3nccs3)CC2)C1=O.O=C(O)C(F)(F)F	7.573% and -4.975%
I.c1ccc(Sc2ccc3c(c2)OCO3)c(CNC2=NCCN2)c1	16.39% and 24.29%
O=C(c1cc(COc2ccc3c(c2)OCO3)[nH]n1)N1CCOCC1	-26.39%
CNc1nc2ncc(Cl)cc2cc1C#N	19.21% and -2.081%
COc1cc(C2SCC(=O)Nc3n[nH]cc32)cc(OC)c1O (stereo unspecified)	13.77%
N#CCCN(Cc1cccnc1)C(=O)c1ccc(OCC2CC2)cc1	-1.696%
CC(C)CN1CCCC2(CCN(C(=O)c3cnccn3)C2)C1 (stereo unspecified)	-7.138%
Cc1cc(=O)[nH]c(=O)n1-c1cccc(Cl)c1Cl	-3.149%
N#Cc1cccc(S(=O)(=O)NC(=O)CCOCC(F)(F)F)c1	19.84%
Cc1cc(-c2cc(F)ccc2C(=O)O)nc(C2CCCCN2C(C)C)n1 (stereo unspecified)	1.057%
OCCOc1ccc(NCc2cccnc2)cn1	-23.07%
CS(=O)(=O)c1cncnc1C1CCCN(C(=O)NCc2ccccc2)C1 (stereo unspecified)	-1.113%
O=C(NCc1ccc(F)cc1)N1CCC(C2OCCO2)CC1	0.078% and 15.01%
NCCc1n[nH]c(=O)n1-c1cccc2ccccc12	-40.67%
c1cc(C2CCN(Cc3ccc4c(c3)OCO4)CC2)ccn1	4.54% and -8.359%
Cc1ccsc1C(=O)Nc1ccc(N2CCC(O)CC2)c(C#N)c1	9.438% and 7.789%
CNC(=O)NC(=O)CCN1CCN(c2ccc(C(=O)OC)cc2)CC1C (stereo unspecified)	-1.604%
CCCN1CCC(c2nc3ccc(-c4cccc(F)c4)cn3n2)CC1.O=C(O)C(F)(F)F	24.05%
O=C(NCCn1ccnc1)NCC(c1ccco1)N1CCCC1 (stereo unspecified)	17.27%
COC1CCN(c2ccc(NC(=O)C3CC3)cc2C(F)(F)F)CC1	36.09%
O=C(N1CCCC1)N1CCOCC2(C1)CN(c1ccccc1)C(=O)CO2 (stereo unspecified)	-7.858%
CCOC(=O)NC(CNC(=O)CCc1ccccn1)CC(C)C (stereo unspecified)	7.219%
CN(C)C(=O)CN(C)C(=O)c1csc(Br)c1	-40.14% and -10.63%
COC[C@]1(O)CCN(C(=O)c2ccc(CN(C)C)o2)CC1(C)C	-0.7231%
O=C(C1CCCO1)N1CCC2(CC1)COCCN2CC1CC1 (stereo unspecified)	-5.424%
CCC(=O)N1CCN(C(=O)Nc2cccc(N3CCOCC3)c2)CC1	20.65%
COC(=O)CNc1cc(C(=O)NCC(F)(F)F)cc(F)c1C	-30.86%
[H][C@@]12CS(=O)(=O)C[C@]1([H])N(CC(=O)N1CCCCC1)CCN2c1ncccn1	1.526%
O=C(O)C(F)(F)F.[H][C@@]12OCCC[C@]1([H])N(C(=O)c1cccn1C)C[C@H]2OCc1ccncc1	3.392%
c1ccc2nc(N3CCCC3c3nnc4n3CCCCC4)cnc2c1 (stereo unspecified)	15.01%
O=C(COCc1ccccc1)N1CCN(c2ccc(Cl)cn2)CC1	0.4521%
CN(Cc1ccc(O)cc1)C(=O)NCc1nnc2n1CCCCC2	8.455% and -3.029%
OCC1CCCCN1CCCNCc1cc(O)c2cc(F)ccc2n1 (stereo unspecified)	-37.66% and -3.378%
CC(C)CCN1C(=O)CC(N(C)Cc2nc3ccccc3c(=O)[nH]2)C1=O (stereo unspecified)	0.2872%
CCOc1ccc(NC(=O)NCC(C)(O)c2cccs2)cc1 (stereo unspecified)	6.574%
CCN(Cc1ccc2c(c1)OCO2)C(=O)NC(C)Cn1cccn1 (stereo unspecified)	-23.52%
CN(Cc1ccccc1)c1cnn(CC2COCCO2)c(=O)c1 (stereo unspecified)	-5.313%
Cc1nc(CCNC(=O)C2CC(=O)N(C(C)(C)C)C2)sc1C (stereo unspecified)	6.367%
CC1(C)COCCN1C(=O)c1ccc(Cn2cncn2)cc1	0.8077%
Cc1cnn(CC2CN(Cc3nc(-c4ccccn4)no3)CCO2)c1 (stereo unspecified)	8.03%
CC(C)CC(=O)N1CCCC1c1cc(CO)[nH]n1 (stereo unspecified)	-12.1%
Cc1ccc(OC2CCN(CCn3cncn3)CC2)cc1	13.3% and 4.824%
O=C(O)C(F)(F)F.O=C(c1cccs1)N1CCCC2(COCCN(c3cccnc3)C2)C1 (stereo unspecified)	-12.87%
O=C(NCCC(=O)N1CCCCCC1)c1c(O)cc(F)cc1F	35.23%
Cn1ccnc1CN1CCCC(CO)(CCc2ccccc2)C1 (stereo unspecified)	5.109% and 21.08%
COCC1CC2(CCN(Cc3ccc(C)o3)CC2)CN1C(C)C.O=C(O)C(F)(F)F.O=C(O)C(F)(F)F (stereo unspecified)	8.355%
CC(CNC(=O)c1ccncc1F)Oc1ccc(F)cc1 (stereo unspecified)	11.69%
CCS(=O)(=O)CC(=O)NC(c1ccccc1)C1CCCCC1 (stereo unspecified)	-15.7% and 2.101%
N[C@H]1CN(C(=O)c2ccc3[nH]c(CO)nc3c2)C[C@@H]1c1ccccc1	-11.77%
CC(=O)N(Cc1noc(C2CC2)n1)C1CCN(Cc2nccn2C)C1 (stereo unspecified)	-11.46%
Cn1cc(-c2csc(N3CCSCC3)n2)cn1	-7.689%
O=C(NCCCNc1ccccc1)c1scnc1Cl	-11.15%
[H][C@]12CC[C@]([H])(CN(C3Cc4ccccc4C3)C1)N(C(=O)CCOC)C2	-29.23% and -0.1236%
[H][C@@]12CN(Cc3cccnc3)C[C@]1([H])N(CCCN1CCOCC1)C(=O)O2	9.712%
CCOC(=O)CNC(=O)N1CCCC(CNC(=O)c2ccco2)C1 (stereo unspecified)	-0.4562%
NC1C=C(C(F)(F)F)NC=C1c1ccc(Cl)cc1 (stereo unspecified)	-2.508%
NS(=O)(=O)N1CCC(CSc2ccccc2)C1 (stereo unspecified)	24.16%
Cc1nnc(SCCNC(=O)Cn2cnc3ccccc3c2=O)s1	-13.07%

7 of the entries, repeated:

| compound | effect |
|---|---|
| `O=C(NCCC(=O)N1CCCCCC1)c1c(O)cc(F)cc1F` | 35.23% |
| `[H][C@]12CC[C@]([H])(CN(C3Cc4ccccc4C3)C1)N(C(=O)CCOC)C2` | -29.23% and -0.1236% |
| `CC(C)CC(=O)N1CCCC1c1cc(CO)[nH]n1` (stereo unspecified) | -12.1% |
| `CC1(C)COCCN1C(=O)c1ccc(Cn2cncn2)cc1` | 0.8077% |
| `[H][C@@]12CS(=O)(=O)C[C@]1([H])N(CC(=O)N1CCCCC1)CCN2c1ncccn1` | 1.526% |
| `COCCN(C)C[C@@H]1CN(c2nc(C)cc(C)n2)C[C@@H]1CO` | 16.54% |
| `CN(C)C(=O)CN(C)C(=O)c1csc(Br)c1` | -40.14% and -10.63% |

From ChEMBL document CHEMBL3988442, “University of Dundee, Small-Polar-MMV Screening Library” (2021).